# In paper PMC10042835:
# No constants are given. Whether binding was seen depends on the method and setting. Some binding calls cover weakened binding; strength is not graded here. For part of these data: Sequences can lack the tags named with a protein.
# T1: phyB-GFP (Arabidopsis thaliana), P14713
# T1 chain: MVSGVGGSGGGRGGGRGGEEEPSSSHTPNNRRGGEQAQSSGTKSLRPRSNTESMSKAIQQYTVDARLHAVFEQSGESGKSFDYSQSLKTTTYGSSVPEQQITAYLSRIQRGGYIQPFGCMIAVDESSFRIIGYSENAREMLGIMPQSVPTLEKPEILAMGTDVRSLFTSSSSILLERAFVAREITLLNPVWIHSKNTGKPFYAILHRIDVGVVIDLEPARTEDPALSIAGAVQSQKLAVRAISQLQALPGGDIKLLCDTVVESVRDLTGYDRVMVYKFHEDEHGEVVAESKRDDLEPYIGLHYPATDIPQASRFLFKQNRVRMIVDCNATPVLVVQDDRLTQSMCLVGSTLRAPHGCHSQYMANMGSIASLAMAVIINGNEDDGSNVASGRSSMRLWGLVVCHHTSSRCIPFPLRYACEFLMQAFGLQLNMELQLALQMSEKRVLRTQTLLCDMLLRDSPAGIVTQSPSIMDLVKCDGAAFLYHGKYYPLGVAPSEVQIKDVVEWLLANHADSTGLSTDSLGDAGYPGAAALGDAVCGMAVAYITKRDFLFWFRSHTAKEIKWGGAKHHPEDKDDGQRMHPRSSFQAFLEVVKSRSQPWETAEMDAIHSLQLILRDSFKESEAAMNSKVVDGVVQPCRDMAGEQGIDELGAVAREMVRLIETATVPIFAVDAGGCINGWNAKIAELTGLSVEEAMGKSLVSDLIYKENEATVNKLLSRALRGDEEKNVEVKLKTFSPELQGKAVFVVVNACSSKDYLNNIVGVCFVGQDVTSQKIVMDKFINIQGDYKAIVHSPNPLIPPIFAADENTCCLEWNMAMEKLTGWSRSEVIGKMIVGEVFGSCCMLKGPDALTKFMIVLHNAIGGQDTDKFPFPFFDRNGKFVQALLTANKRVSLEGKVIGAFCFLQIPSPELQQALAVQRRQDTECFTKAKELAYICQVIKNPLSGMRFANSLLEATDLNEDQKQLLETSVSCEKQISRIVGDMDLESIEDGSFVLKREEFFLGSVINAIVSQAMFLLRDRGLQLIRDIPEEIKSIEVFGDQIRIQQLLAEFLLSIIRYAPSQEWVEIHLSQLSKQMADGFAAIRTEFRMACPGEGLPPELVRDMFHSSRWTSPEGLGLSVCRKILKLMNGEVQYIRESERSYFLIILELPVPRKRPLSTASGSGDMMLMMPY
# B1: SUPPRESSOR OF PHYA-105 1 (SPA1) (protein, UniProt Q9SYX2 1-1029)
# chain: MPVMERVAEETVATNNIQLKARVDDVPCNKLDARHNDMVIQSETANSDCPGSSAHRNVDLTKPPPPEEAAGAKLSVEELTLGNYRIVQGSNNTNVDSPRAGKFEHLYRLARGSAFRAGDGDLDSQPRDMDQMLSRIRQQLAGAPSERQNLKPFMSRRSDQNLEAFSERLRAAGENSIMNAPALISEGVQMKTPVSSSNFSQLLLKRAMKGKGVVGKNQETPPEFVSDQDLGSKEKKLDISKSPTPHDVLPLKSSPKGNGMVSHGDGNHSKSSIGISLREFLRSSYAKREKRHGLCLFRQLVELVDSAHSKRLFLLDLRPSLFTLVPSKKLRYIGNFGKNDLESDVDEDLNRRRPVVEESSSGGRDSKKRKMDLHLNSPGNQLQATSTGRPFKRKSPVIDLNMVDARNPDSCELQQQDYIKNLSVSSVSRKQSMSTWLEEQWYTCPEEINGEDIGEKSNIYALGVLLFELLCHCESGEMHAAMMADLRHRILPPTFLSKYPKEAGFCLWLLHPEPSSRPSARDILKSELICEDDSVKSTAAAEEISELLLHFLSSLEVQKKKKASKLLQDIQTLEDDIKEAERRYSSNVSLVRSHGAIEKRVQSSPLDEHCTTSSALFVPTANTDRLMSNIRQLEDAYFFMRSQINLSSSAATARSDKTLKDRDRCSENQNENQDMSTKGKSSDQLEVFFEGLCKFARYSKFETCGTIRSGDLLNSASVVCSLSFDPDEEHIAAAGISKKIKIFDFNAFMNESVGVHYPLVEMVNKSKLSCVCWNSYIKNYLASTDYDGVVQIWDAGTGQGFSQYTEHQKRAWSVDFSPSDPTKFVSGSDDCSVKLWSINEKRSLGTIWSPANVCCVQFSSYSNHLLAFGSADYKVYCYDLRYVKTPWCTLAGHEKAVSYVKFMDSETIVSASTDNSLKLWNLNKTNSSGLSPGACSLTYKGHTNQKNFVGLSVLDGYIACGSETNEVYSYYKSLPMPMTSYKFGSVDPISGNEYFDDNGQFVSSVCWRKKSNMLVAANSTGNMKLLKLV
# B2: phyC (receptor, UniProt P14714 1-1111)
# chain: MSSNTSRSCSTRSRQNSRVSSQVLVDAKLHGNFEESERLFDYSASINLNMPSSSCEIPSSAVSTYLQKIQRGMLIQPFGCLIVVDEKNLKVIAFSENTQEMLGLIPHTVPSMEQREALTIGTDVKSLFLSPGCSALEKAVDFGEISILNPITLHCRSSSKPFYAILHRIEEGLVIDLEPVSPDEVPVTAAGALRSYKLAAKSISRLQALPSGNMLLLCDALVKEVSELTGYDRVMVYKFHEDGHGEVIAECCREDMEPYLGLHYSATDIPQASRFLFMRNKVRMICDCSAVPVKVVQDKSLSQPISLSGSTLRAPHGCHAQYMSNMGSVASLVMSVTINGSDSDEMNRDLQTGRHLWGLVVCHHASPRFVPFPLRYACEFLTQVFGVQINKEAESAVLLKEKRILQTQSVLCDMLFRNAPIGIVTQSPNIMDLVKCDGAALYYRDNLWSLGVTPTETQIRDLIDWVLKSHGGNTGFTTESLMESGYPDASVLGESICGMAAVYISEKDFLFWFRSSTAKQIKWGGARHDPNDRDGKRMHPRSSFKAFMEIVRWKSVPWDDMEMDAINSLQLIIKGSLQEEHSKTVVDVPLVDNRVQKVDELCVIVNEMVRLIDTAAVPIFAVDASGVINGWNSKAAEVTGLAVEQAIGKPVSDLVEDDSVETVKNMLALALEGSEERGAEIRIRAFGPKRKSSPVELVVNTCCSRDMTNNVLGVCFIGQDVTGQKTLTENYSRVKGDYARIMWSPSTLIPPIFITNENGVCSEWNNAMQKLSGIKREEVVNKILLGEVFTTDDYGCCLKDHDTLTKLRIGFNAVISGQKNIEKLLFGFYHRDGSFIEALLSANKRTDIEGKVTGVLCFLQVPSPELQYALQVQQISEHAIACALNKLAYLRHEVKDPEKAISFLQDLLHSSGLSEDQKRLLRTSVLCREQLAKVISDSDIEGIEEGYVELDCSEFGLQESLEAVVKQVMELSIERKVQISCDYPQEVSSMRLYGDNLRLQQILSETLLSSIRFTPALRGLCVSFKVIARIEAIGKRMKRVELEFRIIHPAPGLPEDLVREMFQPLRKGTSREGLGLHITQKLVKLMERGTLRYLRESEMSAFVILTEFPLI
# B3: phyE (receptor, UniProt P42498 1-1112)
# chain: MGFESSSSAASNMKPQPQKSNTAQYSVDAALFADFAQSIYTGKSFNYSKSVISPPNHVPDEHITAYLSNIQRGGLVQPFGCLIAVEEPSFRILGLSDNSSDFLGLLSLPSTSHSGEFDKVKGLIGIDARTLFTPSSGASLSKAASFTEISLLNPVLVHSRTTQKPFYAILHRIDAGIVMDLEPAKSGDPALTLAGAVQSQKLAVRAISRLQSLPGGDIGALCDTVVEDVQRLTGYDRVMVYQFHEDDHGEVVSEIRRSDLEPYLGLHYPATDIPQAARFLFKQNRVRMICDCNATPVKVVQSEELKRPLCLVNSTLRAPHGCHTQYMANMGSVASLALAIVVKGKDSSKLWGLVVGHHCSPRYVPFPLRYACEFLMQAFGLQLQMELQLASQLAEKKAMRTQTLLCDMLLRDTVSAIVTQSPGIMDLVKCDGAALYYKGKCWLVGVTPNESQVKDLVNWLVENHGDDSTGLTTDSLVDAGYPGAISLGDAVCGVAAAGFSSKDYLLWFRSNTASAIKWGGAKHHPKDKDDAGRMHPRSSFTAFLEVAKSRSLPWEISEIDAIHSLRLIMRESFTSSRPVLSGNGVARDANELTSFVCEMVRVIETATAPIFGVDSSGCINGWNKKTAEMTGLLASEAMGKSLADEIVQEESRAALESLLCKALQGEEEKSVMLKLRKFGQNNHPDYSSDVCVLVNSCTSRDYTENIIGVCFVGQDITSEKAITDRFIRLQGDYKTIVQSLNPLIPPIFASDENACCSEWNAAMEKLTGWSKHEVIGKMLPGEVFGVFCKVKCQDSLTKFLISLYQGIAGDNVPESSLVEFFNKEGKYIEASLTANKSTNIEGKVIRCFFFLQIINKESGLSCPELKESAQSLNELTYVRQEIKNPLNGIRFAHKLLESSEISASQRQFLETSDACEKQITTIIESTDLKSIEEGKLQLETEEFRLENILDTIISQVMIILRERNSQLRVEVAEEIKTLPLNGDRVKLQLILADLLRNIVNHAPFPNSWVGISISPGQELSRDNGRYIHLQFRMIHPGKGLPSEMLSDMFETRDGWVTPDGLGLKLSRKLLEQMNGRVSYVREDERCFFQVDLQVKTMLGVESRGTEGSSSIK
# B4: PCH1-like (PCHL) (protein, UniProt O65680 1-279)
# chain: MSEHFMGLSKIKTESCVHGYESAWLSRWTPSNKNAKEIHLPEDGHLLKESTGPMKLKGKMLTLFPNLDSPVQSVDVIPDMNKEPPIVADRENSIDGEEEEASSQATQSKNVEHFLNNNTNLLRECKRIWSDSETNSRSQVKRLKTNAADNRGNETKNMMVFEEGPSGKKVNHFFHSIFGMTNLGSRRYQKFSTSQNKNLNMGEAEDVNPWIQRWCKRKAADVHEPRGGQEVNSNGTVLEKQQFPSIAAMAMMRKALSGINPTGCRKTNSLFVWNAEDLS
# B5: GAPCP1 (enzyme, UniProt Q9SAJ6 70-422)
# chain: TATEVPSAVRRSSSSGKTKVGINGFGRIGRLVLRIATSRDDIEVVAVNDPFIDAKYMAYMLKYDSTHGNFKGSINVIDDSTLEINGKKVNVVSKRDPSEIPWADLGADYVVESSGVFTTLSKAASHLKGGAKKVIISAPSADAPMFVVGVNEHTYQPNMDIVSNASCTTNCLAPLAKVVHEEFGILEGLMTTVHATTATQKTVDGPSMKDWRGGRGASQNIIPSSTGAAKAVGKVLPELNGKLTGMAFRVPTSNVSVVDLTCRLEKGASYEDVKAAIKHASEGPLKGILGYTDEDVVSNDFVGDSRSSIFDANAGIGLSKSFVKLVSWYDNEWGYSNRVLDLIEHMALVAASH
# B6: CONSTITUTIVELY PHOTOMORPHOGENIC 1 (COP1), P43254 1-675 (protein)
# chain: MEEISTDPVVPAVKPDPRTSSVGEGANRHENDDGGSGGSEIGAPDLDKDLLCPICMQIIKDAFLTACGHSFCYMCIITHLRNKSDCPCCSQHLTNNQLYPNFLLDKLLKKTSARHVSKTASPLDQFREALQRGCDVSIKEVDNLLTLLAERKRKMEQEEAERNMQILLDFLHCLRKQKVDELNEVQTDLQYIKEDINAVERHRIDLYRARDRYSVKLRMLGDDPSTRNAWPHEKNQIGFNSNSLSIRGGNFVGNYQNKKVEGKAQGSSHGLPKKDALSGSDSQSLNQSTVSMARKKRIHAQFNDLQECYLQKRRQLADQPNSKQENDKSVVRREGYSNGLADFQSVLTTFTRYSRLRVIAEIRHGDIFHSANIVSSIEFDRDDELFATAGVSRCIKVFDFSSVVNEPADMQCPIVEMSTRSKLSCLSWNKHEKNHIASSDYEGIVTVWDVTTRQSLMEYEEHEKRAWSVDFSRTEPSMLVSGSDDCKVKVWCTRQEASVINIDMKANICCVKYNPGSSNYIAVGSADHHIHYYDLRNISQPLHVFSGHKKAVSYVKFLSNNELASASTDSTLRLWDVKDNLPVRTFRGHTNEKNFVGLTVNSEYLACGSETNEVYVYHKEITRPVTSHRFGSPDMDDAEEEAGSYFISAVCWKSDSPTMLTANSQGTIKVLVLAA
# Molecular target: phyB-GFP (Arabidopsis thaliana) (UniProt P14713)
# Assay: fluorescence-activated particle sorting of phyB-GFP photobodies with LC-MS/MS; photobodies sorted by green fluorescence (Alexa Fluor 488 anti-GFP antibody) from sonicated nuclei of PHYB-GFP leaves; proteins enriched over the pre-sorted nuclear extract by more than 2σ
# Details: not given
row,Binder,binding
1,B1,binds
2,B2,binds
3,B3,binds
4,B4,binds
5,B5,no binding

# Molecular target: T1, phyB-GFP (Arabidopsis thaliana), P14713
# Assay: as above
# Details: remark: other sources report otherwise
row,Binder,binding
1,B6,binds
